Reference: PubChem BioAssay AID1259405 (NCATS, 2018)

- Screen: 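Knock-downs that lift recombinant protein yield in hamster ovary cells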 (primary screen)
- Cell system: Chinese hamster CHO-K1 ovary cells with stable secreted eGFP expression
- Reagent: single siRNA against mouse genes, 0.8 pmol siRNA per well (2 µl of 400 nM stock)
- Timing: 3 days
- Measurement: 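Per-well intracellular GFP measured by laser scanning cytometry, plus viability from ATP luminescence, each relative to plate median of non-targeting control wells, in %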
- Reading the numbers: GFP, % of control: higher = more GFP per well, higher productivity; viability (ATP), % of control: higher = more viable cells (more ATP)
- Call rule: 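a knock-down is called active if GFP reaches 120% or more of non-targeting control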
The deposit covers about 50,000 reagents; this is a random part of them. About 4,000 of all reagents (8%) count as active. 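Mouse siRNA library applied to hamster cells; one well for each siRNA.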 A number with no mark means an inactive call. The numbers tell different reagents against one gene apart.

| gene symbol | reagent | GFP, % of control | viability (ATP), % of control |
| --- | --- | --- | --- |
| Alx3 (GeneID 11694) | 1 | 104 | 90.7 |
| Alx3 (GeneID 11694) | 2 | 89.9 | 57.3 |
| Alx3 (GeneID 11694) | 3 | 115 | 80.9 |
| Acot5 (GeneID 217698) | 1 | 57.8 | 52.1 |
| Acot5 (GeneID 217698) | 2 | 95.2 | 96.8 |
| Acot5 (GeneID 217698) | 3 | 113 | 135 |
| Pik3r5 (GeneID 320207) | 1 | 27.2 | 53.4 |
| Pik3r5 (GeneID 320207) | 2 | 59.9 | 54.3 |
| Baiap2l1 (GeneID 66898) | 1 | 127 (active) | 105 |
| Baiap2l1 (GeneID 66898) | 2 | 83.2 | 99.4 |
| Baiap2l1 (GeneID 66898) | 3 | 34 | 53 |
| Eif3m (GeneID 98221) | 1 | 58.8 | 74.6 |
| Eif3m (GeneID 98221) | 2 | 41.1 | 52.5 |
| Eif3m (GeneID 98221) | 3 | 70.1 | 52.1 |
| Pcdha4 (GeneID 12936) | 1 | 45.9 | 40.3 |
| Pcdha4 (GeneID 12936) | 2 | 81 | 77.8 |
| Pcdha4 (GeneID 12936) | 3 | 89.5 | 61.3 |
| Cry2 (GeneID 12953) | 1 | 91.6 | 63.4 |
| Cry2 (GeneID 12953) | 2 | 66.9 | 70.8 |
| Cry2 (GeneID 12953) | 3 | 65 | 85.2 |
| Mme (GeneID 17380) | 1 | 76.6 | 102 |
| Mme (GeneID 17380) | 2 | 70.2 | 75.2 |
| Mme (GeneID 17380) | 3 | 56.6 | 69.7 |
| Nek2 (GeneID 18005) | 1 | 101 | 78.6 |
| Nek2 (GeneID 18005) | 2 | 119 | 77.9 |
| Nek2 (GeneID 18005) | 3 | 90.5 | 79.5 |
| Rif1 (GeneID 51869) | 1 | 48.7 | 27.9 |
| Rif1 (GeneID 51869) | 2 | 75.1 | 73.2 |
| Rif1 (GeneID 51869) | 3 | 56 | 86.9 |
| Rtl6 (GeneID 223732) | 1 | 59.9 | 77.8 |
| Rtl6 (GeneID 223732) | 2 | 82.3 | 114 |
| Rtl6 (GeneID 223732) | 3 | 113 | 147 |
| Or10ag57 (GeneID 259033) | 1 | 121 (active) | 72.2 |
| Or10ag57 (GeneID 259033) | 2 | 68.5 | 63.2 |
| Or10ag57 (GeneID 259033) | 3 | 93.8 | 103 |
